Results taken from patent US11149230B2, “Process for extracting carboxylic acids produced by anaerobic fermentation from fermentable biomass” (AFYREN, priority 2015, dated 2021).

Assay: Test 1: liquid-liquid extraction of carboxylic acids from fermentation medium with endogenous solvent
Type: physicochemical
Conditions: 50 ml liquid phase of fermentation medium (household waste, 50 g/l DM), pH 4.3, solvent in 1/1 volume ratio

## CCCCCCC(=O)O [heptanoic acid, Heptanoic acid]
  extraction yield: 37%

## CCCCCCCC(=O)O [octanoic acid, Octanoic acid]
  extraction yield: identical yield
